Measurements reported in PubChem BioAssay AID1224830 (NIAID, 2016)
Assay: 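Regulators of TLR4 signalling towards TNF-alpha in macrophage-like cells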 (primary screen). Cell system: human THP-1 monocytic leukaemia cells, TNF dual-luciferase reporter clone, PMA-differentiated to macrophage-like cells. Reagent: siRNA pool against human genes, 50 nM. Timing: LPS for 4 h, given about 3 days after siRNA transfection. Challenge: bacterial LPS (TLR4 ligand), 10 ng/ml. Measured: 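Ratio of firefly to renilla light, scaled to the plate median and expressed as a robust z-score per replicate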. Scale: TNF reporter robust z-score: higher = stronger TNF reporter response to LPS. Active means: 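a well is active when its z-score exceeds 2.8 or falls below -1.5; control wells carry no call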.
Here is a random part of about 18,000 reagents. Of all reagents, about 2,900 (16%) got an active call. 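Calls are made per well; low scores hint the gene aids the LPS response, high scores that it dampens it.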 Repeated entries: four replicate wells of each siRNA pool. No sequences are given here.

NEUROG3 scored TNF reporter robust z-score 0.45; inactive.
Depletion of NEUROG3 gave: TNF reporter robust z-score -0.47; inactive.
NEUROG3 scored TNF reporter robust z-score -0.27; inactive.
After knock-down of NEUROG3, the screen gave TNF reporter robust z-score -0.29; inactive.
HNRNPLL scored TNF reporter robust z-score 0.74; inactive.
After knock-down of HNRNPLL, the record shows TNF reporter robust z-score 0.01; inactive.
For HNRNPLL, the values are TNF reporter robust z-score 0.47; inactive.
With knock-down of HNRNPLL, the screen gave TNF reporter robust z-score 2.15; inactive.
With knock-down of EXOC2 the results were TNF reporter robust z-score 0.73; inactive.
For EXOC2, the values are TNF reporter robust z-score -0.83; inactive.
Silencing of EXOC2 gave: TNF reporter robust z-score 1.07; inactive.
Depletion of EXOC2 gave: TNF reporter robust z-score 0.35; inactive.
Knock-down of AASS resulted in: TNF reporter robust z-score -0.7; inactive.
AASS showed TNF reporter robust z-score -0.53; inactive.
AASS scored TNF reporter robust z-score -1.13; inactive.
Silencing of AASS came out at: TNF reporter robust z-score 0.02; inactive.
For SPAG1, the values are TNF reporter robust z-score -1.87; active.
SPAG1 scored TNF reporter robust z-score -1.53; active.
For SPAG1, the entry reads TNF reporter robust z-score -1.36; inactive.
With knock-down of SPAG1, the record shows TNF reporter robust z-score -1.77; active.
After knock-down of CYP2B6, the record shows TNF reporter robust z-score -0.11; inactive.
Knock-down of CYP2B6 gave: TNF reporter robust z-score -0.03; inactive.
Knock-down of CYP2B6 gave: TNF reporter robust z-score 1.04; inactive.
CYP2B6 showed TNF reporter robust z-score 0.64; inactive.
Depletion of ZNF695 came out at: TNF reporter robust z-score -1.18; inactive.
Silencing of ZNF695 resulted in: TNF reporter robust z-score 0.55; inactive.
ZNF695 scored TNF reporter robust z-score -0.3; inactive.
ZNF695 gave TNF reporter robust z-score -0.75; inactive.
For HEBP2, the entry reads inactive.
HEBP2 gave TNF reporter robust z-score -0.33; inactive.
HEBP2 showed TNF reporter robust z-score -0.72; inactive.
Depletion of HEBP2 resulted in: TNF reporter robust z-score 0.33; inactive.
